Reference: PubChem BioAssay AID186 (DTP/NCI, 2004)
Shown are survivors of the treated group in tumour-free mice. Counts of survivors are from the toxicity check (mostly the fifth day) where no day follows; animals may have died later. Schedule codes are those of the source, taken here to give the interval after Q, in days (D) or hours (H), and the number of doses after X. Some doses were run more than once; their values stand side by side, smallest first.

Tested on: B6D2F1 mice, nontumored toxicity test, survival
Assay: NCI In Vivo Anticancer Drug Screen. Data for tumor model Nontumored Animals (Toxicity Test) in B6D2F1 (BDF1) mice

## CC(C)[C@]12O[C@H]1[C@@H]1O[C@]13[C@]1(O[C@H]1C[C@H]1C4=C(C(=O)OC4)[C@@H](O)C[C@@]13C)[C@@H]2O
dose: 0.03 mg/kg/injection, schedule: Q01DX009 (ip), vehicle: saline + alcohol
  survivor count: 8 of 8
dose: 0.06 mg/kg/injection, schedule: Q01DX009 (ip), vehicle: saline + alcohol
  survivor count: 8 of 8
dose: 0.06 mg/kg/injection, schedule: Q01DX009 (ip), vehicle: saline with Tween-80
  survivor count: 7 of 7 and 8 of 8
dose: 0.06 mg/kg/injection, schedule: Q01DX009 (sc), vehicle: saline + alcohol
  survivor count: 8 of 8
dose: 0.06 mg/kg/injection, schedule: Q04DX003 (ip), vehicle: saline + alcohol
  survivor count: 8 of 8
dose: 0.12 mg/kg/injection, schedule: Q01DX009 (ip), vehicle: saline + alcohol
  survivor count: 8 of 8
dose: 0.12 mg/kg/injection, schedule: Q01DX009 (ip), vehicle: saline with Tween-80
  survivor count: 8 of 8
dose: 0.12 mg/kg/injection, schedule: Q01DX009 (sc), vehicle: saline + alcohol
  survivor count: 8 of 8
dose: 0.12 mg/kg/injection, schedule: Q04DX003 (ip), vehicle: saline + alcohol
  survivor count: 8 of 8
dose: 0.12 mg/kg/injection, schedule: Q08DX002 (ip), vehicle: saline + alcohol
  survivor count: 8 of 8
dose: 0.13 mg/kg/injection, schedule: Q01DX009 (ip), vehicle: saline + alcohol
  survivor count: 7 of 8 and 8 of 8
dose: 0.13 mg/kg/injection, schedule: Q01DX009 (ip), vehicle: saline with Tween-80
  survivor count: 8 of 8
dose: 0.13 mg/kg/injection, schedule: Q01DX009 (oral), vehicle: saline + alcohol
  survivor count: 6 of 6 and 8 of 8
dose: 0.25 mg/kg/injection, schedule: Q01DX001 (ip), vehicle: saline + alcohol
  survivor count: 8 of 8
dose: 0.25 mg/kg/injection, schedule: Q01DX009 (ip), vehicle: saline + alcohol
  survivor count: 7 of 7 and 8 of 8
dose: 0.25 mg/kg/injection, schedule: Q01DX009 (ip), vehicle: saline with Tween-80
  survivor count: 8 of 8
dose: 0.25 mg/kg/injection, schedule: Q01DX009 (oral), vehicle: saline + alcohol
  survivor count: 8 of 8
dose: 0.25 mg/kg/injection, schedule: Q01DX009 (sc), vehicle: saline + alcohol
  survivor count: 8 of 8
dose: 0.25 mg/kg/injection, schedule: Q04DX003 (ip), vehicle: saline + alcohol
  survivor count: 8 of 8
dose: 0.25 mg/kg/injection, schedule: Q08DX002 (ip), vehicle: saline + alcohol
  survivor count: 8 of 8
dose: 0.5 mg/kg/injection, schedule: Q01DX001 (ip), vehicle: saline + alcohol
  survivor count: 8 of 8
dose: 0.5 mg/kg/injection, schedule: Q01DX009 (ip), vehicle: saline + alcohol
  survivor count: 2 of 8, 3 of 8, 7 of 8, 7 of 7
dose: 0.5 mg/kg/injection, schedule: Q01DX009 (ip), vehicle: saline with Tween-80
  survivor count: 1 of 8 and 6 of 8
dose: 0.5 mg/kg/injection, schedule: Q01DX009 (oral), vehicle: saline + alcohol
  survivor count: 1 of 8 and 5 of 8
dose: 0.5 mg/kg/injection, schedule: Q01DX009 (sc), vehicle: saline + alcohol
  survivor count: 7 of 8
dose: 0.5 mg/kg/injection, schedule: Q04DX003 (ip), vehicle: saline + alcohol
  survivor count: 8 of 8
dose: 0.5 mg/kg/injection, schedule: Q08DX002 (ip), vehicle: saline + alcohol
  survivor count: 8 of 8
dose: 1.0 mg/kg/injection, schedule: Q01DX001 (ip), vehicle: saline + alcohol
  survivor count: 5 of 8
dose: 1.0 mg/kg/injection, schedule: Q01DX009 (ip), vehicle: saline + alcohol
  survivor count: 0 of 8 and 2 of 8
dose: 1.0 mg/kg/injection, schedule: Q01DX009 (ip), vehicle: saline with Tween-80
  survivor count: 0 of 8
dose: 1.0 mg/kg/injection, schedule: Q01DX009 (oral), vehicle: saline + alcohol
  survivor count: 0 of 8
dose: 1.0 mg/kg/injection, schedule: Q01DX009 (sc), vehicle: saline + alcohol
  survivor count: 0 of 8
dose: 1.0 mg/kg/injection, schedule: Q04DX003 (ip), vehicle: saline + alcohol
  survivor count: 4 of 8
dose: 1.0 mg/kg/injection, schedule: Q08DX002 (ip), vehicle: saline + alcohol
  survivor count: 2 of 8
dose: 2.0 mg/kg/injection, schedule: Q01DX001 (ip), vehicle: saline + alcohol
  survivor count: 0 of 8
dose: 2.0 mg/kg/injection, schedule: Q01DX009 (ip), vehicle: saline + alcohol
  survivor count: 0 of 8
dose: 2.0 mg/kg/injection, schedule: Q01DX009 (ip), vehicle: saline with Tween-80
  survivor count: 0 of 8
dose: 2.0 mg/kg/injection, schedule: Q01DX009 (oral), vehicle: saline + alcohol
  survivor count: 0 of 8
dose: 2.0 mg/kg/injection, schedule: Q01DX009 (sc), vehicle: saline + alcohol
  survivor count: 0 of 8
dose: 2.0 mg/kg/injection, schedule: Q08DX002 (ip), vehicle: saline + alcohol
  survivor count: 0 of 8
dose: 4.0 mg/kg/injection, schedule: Q01DX001 (ip), vehicle: saline + alcohol
  survivor count: 0 of 8
dose: 4.0 mg/kg/injection, schedule: Q01DX009 (oral), vehicle: saline + alcohol
  survivor count: 0 of 8
dose: 8.0 micrograms/kg/injection, schedule: Q03HX024 (ip), vehicle: saline + alcohol
  survivor count: 8 of 8
dose: 8.0 micrograms/kg/injection, schedule: Q03HX024 (sc), vehicle: saline + alcohol
  survivor count: 8 of 8
dose: 15.6 micrograms/kg/injection, schedule: Q03HX016 (ip), vehicle: saline + alcohol
  survivor count: 8 of 8
dose: 15.6 micrograms/kg/injection, schedule: Q03HX024 (ip), vehicle: saline + alcohol
  survivor count: 8 of 8
dose: 15.6 micrograms/kg/injection, schedule: Q03HX024 (sc), vehicle: saline + alcohol
  survivor count: 8 of 8
dose: 16.0 micrograms/kg/injection, schedule: Q03HX024 (oral), vehicle: saline + alcohol
  survivor count: 8 of 8
dose: 31.2 micrograms/kg/injection, schedule: Q03HX008 (ip), vehicle: saline + alcohol
  survivor count: 8 of 8
dose: 31.2 micrograms/kg/injection, schedule: Q03HX016 (ip), vehicle: saline + alcohol
  survivor count: 8 of 8
dose: 31.2 micrograms/kg/injection, schedule: Q03HX024 (ip), vehicle: saline + alcohol
  survivor count: 8 of 8
dose: 31.3 micrograms/kg/injection, schedule: Q03HX024 (oral), vehicle: saline + alcohol
  survivor count: 7 of 8 and 8 of 8
dose: 31.3 micrograms/kg/injection, schedule: Q03HX024 (sc), vehicle: saline + alcohol
  survivor count: 8 of 8
dose: 62.5 micrograms/kg/injection, schedule: Q03HX008 (ip), vehicle: saline + alcohol
  survivor count: 8 of 8
dose: 62.5 micrograms/kg/injection, schedule: Q03HX016 (ip), vehicle: saline + alcohol
  survivor count: 7 of 8
dose: 62.5 micrograms/kg/injection, schedule: Q03HX024 (ip), vehicle: saline + alcohol
  survivor count: 8 of 8
dose: 62.5 micrograms/kg/injection, schedule: Q03HX024 (oral), vehicle: saline + alcohol
  survivor count: 4 of 8 and 7 of 8
dose: 62.5 micrograms/kg/injection, schedule: Q03HX024 (sc), vehicle: saline + alcohol
  survivor count: 7 of 8
dose: 125.0 micrograms/kg/injection, schedule: Q03HX008 (ip), vehicle: saline + alcohol
  survivor count: 0 of 8
dose: 125.0 micrograms/kg/injection, schedule: Q03HX016 (ip), vehicle: saline + alcohol
  survivor count: 0 of 8
dose: 125.0 micrograms/kg/injection, schedule: Q03HX024 (ip), vehicle: saline + alcohol
  survivor count: 0 of 8
dose: 125.0 micrograms/kg/injection, schedule: Q03HX024 (oral), vehicle: saline + alcohol
  survivor count: 0 of 8
dose: 125.0 micrograms/kg/injection, schedule: Q03HX024 (sc), vehicle: saline + alcohol
  survivor count: 0 of 8
dose: 250.0 micrograms/kg/injection, schedule: Q03HX008 (ip), vehicle: saline + alcohol
  survivor count: 0 of 8
dose: 250.0 micrograms/kg/injection, schedule: Q03HX016 (ip), vehicle: saline + alcohol
  survivor count: 0 of 8
dose: 250.0 micrograms/kg/injection, schedule: Q03HX024 (oral), vehicle: saline + alcohol
  survivor count: 0 of 8
dose: 500.0 micrograms/kg/injection, schedule: Q03HX008 (ip), vehicle: saline + alcohol
  survivor count: 0 of 8
